Test results as given in publication PMC11259706 (The Journal of Biological Chemistry, 2024).

Amino acid sequences for entries named in this document (tags omitted). A change or cut given only in a name is not applied to a line headed by its entry.
UniProt O95163: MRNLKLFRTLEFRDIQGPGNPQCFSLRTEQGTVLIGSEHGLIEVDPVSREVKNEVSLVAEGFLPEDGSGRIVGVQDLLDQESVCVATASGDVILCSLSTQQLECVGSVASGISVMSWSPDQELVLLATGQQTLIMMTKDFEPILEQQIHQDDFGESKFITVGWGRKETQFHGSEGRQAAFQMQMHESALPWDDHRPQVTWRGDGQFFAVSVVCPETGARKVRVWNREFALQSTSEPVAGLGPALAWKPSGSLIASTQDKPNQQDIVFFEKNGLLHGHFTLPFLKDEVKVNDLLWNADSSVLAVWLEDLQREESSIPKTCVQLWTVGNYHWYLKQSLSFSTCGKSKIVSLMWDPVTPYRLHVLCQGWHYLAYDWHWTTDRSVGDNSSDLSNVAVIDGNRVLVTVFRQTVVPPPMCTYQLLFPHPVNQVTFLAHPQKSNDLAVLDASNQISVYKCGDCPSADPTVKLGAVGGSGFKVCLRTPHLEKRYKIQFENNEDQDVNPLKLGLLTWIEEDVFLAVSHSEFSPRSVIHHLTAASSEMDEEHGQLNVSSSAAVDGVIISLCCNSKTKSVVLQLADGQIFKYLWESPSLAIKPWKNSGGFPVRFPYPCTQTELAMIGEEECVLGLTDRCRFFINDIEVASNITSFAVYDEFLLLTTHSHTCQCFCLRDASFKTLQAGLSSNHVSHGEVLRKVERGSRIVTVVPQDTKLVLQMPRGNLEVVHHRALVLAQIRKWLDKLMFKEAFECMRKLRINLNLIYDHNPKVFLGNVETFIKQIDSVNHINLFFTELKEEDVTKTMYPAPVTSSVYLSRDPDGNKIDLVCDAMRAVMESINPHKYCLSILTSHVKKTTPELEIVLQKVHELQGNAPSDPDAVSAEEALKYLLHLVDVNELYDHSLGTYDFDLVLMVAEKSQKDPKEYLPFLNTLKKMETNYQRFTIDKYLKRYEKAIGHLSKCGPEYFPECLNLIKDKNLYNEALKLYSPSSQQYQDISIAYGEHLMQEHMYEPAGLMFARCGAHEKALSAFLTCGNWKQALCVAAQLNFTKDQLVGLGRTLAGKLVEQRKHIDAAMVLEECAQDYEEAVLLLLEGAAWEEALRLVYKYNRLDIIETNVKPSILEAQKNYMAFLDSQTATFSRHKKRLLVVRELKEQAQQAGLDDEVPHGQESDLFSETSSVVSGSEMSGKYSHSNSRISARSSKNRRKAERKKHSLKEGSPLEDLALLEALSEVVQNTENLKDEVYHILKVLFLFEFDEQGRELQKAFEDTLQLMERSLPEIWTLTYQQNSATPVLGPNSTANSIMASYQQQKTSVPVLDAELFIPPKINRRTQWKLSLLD
UniProt P53041: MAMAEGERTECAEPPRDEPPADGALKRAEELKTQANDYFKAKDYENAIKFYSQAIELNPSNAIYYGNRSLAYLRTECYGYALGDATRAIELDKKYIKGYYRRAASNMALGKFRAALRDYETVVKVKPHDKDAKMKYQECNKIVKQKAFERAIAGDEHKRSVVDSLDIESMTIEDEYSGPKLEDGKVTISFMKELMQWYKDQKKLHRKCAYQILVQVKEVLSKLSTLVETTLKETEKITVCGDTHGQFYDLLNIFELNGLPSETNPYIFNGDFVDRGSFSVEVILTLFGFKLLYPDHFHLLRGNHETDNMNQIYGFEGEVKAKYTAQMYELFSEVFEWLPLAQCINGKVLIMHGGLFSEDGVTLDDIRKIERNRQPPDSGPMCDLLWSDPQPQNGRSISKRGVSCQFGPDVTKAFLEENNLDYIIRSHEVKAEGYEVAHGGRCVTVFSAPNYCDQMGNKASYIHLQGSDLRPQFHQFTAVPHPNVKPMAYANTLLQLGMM

Target: cMyc-mut ELP1 (terminal aspartic acid mutated; ending in LSLLA) (UniProt O95163)
Assay: co-IP; HEK293T cells transfected with cMyc-ELP1 and FLAG-PP5; lysate (25 mM Tris-HCl pH 7.4, 150 mM NaCl, 1 mM EDTA, 1% NP-40, 5% glycerol) on anti-myc magnetic resin, RT 3 h; Western blots for FLAG, Hsp90 and Hsp70

“FLAG-PP5 (from UniProt P53041 1-499) (enzyme)” was tested, and the binding was “no binding”.

No constants are given. Whether binding was seen depends on the method and setting. In cells and extracts the contact can be indirect.
